Results as given in patent US20180362485A1, “N-HYDROXYFORMAMIDE COMPOUNDS AND COMPOSITIONS COMPRISING THEM FOR USE AS BMP l, TLL1 AND/OR TLL2 INHIBITORS” (GlaxoSmithKline Intellectual Property (No. 2) Limited, priority 2015, published 2018).
Where a name gives a salt, the structure may show the parent alone. Some of these results come from one statement about several compounds together.

Experiment: Human plasma stability assay
Conditions: 37° C., within 24 hours

SMILES | conversion to a BMP1, TLL1 and/or TLL2 inhibitor in human plasma
CCCCC[C@@H](C(=O)NCNC(=O)c1ccc(-c2cc(OCC)cc(P(=O)(OCOC(=O)C(C)C)OCOC(=O)C(C)C)c2)o1)[C@@H](CC)N(O)C=O [Example 109, (((3-ethoxy-5-(5-((((R)-2-((R)-1-(N-hydroxyformamido)propyl)heptanamido)methyl)carbamoyl)furan-2-yl)phenyl)phosphoryl)bis(oxy))bis (methylene) bis(2-methylpropanoate)] | convert to a BMP1, TLL1 and/or TLL2 inhibitor within 24 hours
CCCCC[C@@H](C(=O)NCNC(=O)c1ccc(-c2ccc(C(=O)N[C@@H](CC(=O)O)C(=O)O)c(OCC)c2)o1)[C@@H](CC)N(C=O)OC(=O)NC(C)C [Example 72, (S)-2-(2-ethoxy-4-(5-(((4R,5R)-5-ethyl-6-formyl-10-methyl-3,8-dioxo-4-pentyl-7-oxa-2,6,9-triazaundecyl)carbamoyl)furan-2-yl)benzamido) succinic acid] | convert to a BMP1, TLL1 and/or TLL2 inhibitor within 24 hours
CCCCC[C@@H](C(=O)NCNC(=O)c1ccc(-c2ccc(C(=O)N[C@@H](CC(=O)O)C(=O)O)c(OCC(=O)O)c2)o1)[C@@H](CC)N(C=O)OC(=O)c1cccc2ccccc12 [Example 33, (S)-2-(4-(5-((((R)-2-((R)-1-(N-((1-naphthoyl)oxy) formamido)propyl)heptanamido)methyl)carbamoyl)furan-2-yl)-2-(carboxymethoxy)benzamido)succinic acid] | convert to a BMP1, TLL1 and/or TLL2 inhibitor within 24 hours
CCCCC[C@@H](C(=O)NCNC(=O)c1ccc(-c2cc(OCC)cc(P(=O)(O)O)c2)o1)[C@@H](CC)N(C=O)OC(=O)c1c(C)cccc1OCOP(=O)(O)O [Example 61, (3-ethoxy-5-(5-((((R)-2-((R)-1-(N-((2-methyl-6-((phosphonooxy)methoxy)benzoyl)oxy) formamido)propyl)heptanamido)methyl)carbamoyl)furan-2-yl)phenyl)phosphonic acid, 4Ammonia salt] | convert to a BMP1, TLL1 and/or TLL2 inhibitor within 24 hours
CCCCC[C@@H](C(=O)NCNC(=O)c1ccc(-c2ccc(C(=O)N[C@@H](CC(=O)O)C(=O)O)c(OCC)c2)o1)[C@@H](CC)N(C=O)OC(=O)c1ccc(N)cc1 [Example 208, (S)-2-(4-(5-((((R)-2-((R)-1-(N-((4-aminobenzoyl)oxy)formamido)propyl)heptanamido)methyl)carbamoyl)furan-2-yl)-2-ethoxybenzamido) succinic acid] | convert to a BMP1, TLL1 and/or TLL2 inhibitor within 24 hours
CCCCC[C@@H](C(=O)NCNC(=O)c1ccc(-c2ccc(C(=O)N[C@@H](CC(=O)O)C(=O)O)c(OCC(=O)O)c2)o1)[C@@H](CC)N(C=O)OC(=O)NC(C)(C)C [Example 29, (S)-2-(2-(carboxymethoxy)-4-(5-(((4R,5R)-5-ethyl-6-formyl-10,10-dimethyl-3,8-dioxo-4-pentyl-7-oxa-2,6,9-triazaundecyl)carbamoyl)furan-2-yl)benzamido)succinic acid] | convert to a BMP1, TLL1 and/or TLL2 inhibitor within 24 hours
CCCCC[C@@H](C(=O)NCNC(=O)c1ccc(-c2ccc(C(=O)N[C@@H](CC(=O)O)C(=O)O)c(OCC)c2)o1)[C@@H](CC)N(C=O)OC(=O)Nc1ccccc1 [Example 203, (S)-2-(2-ethoxy-4-(5-((((R)-2-((R)-1-(N-((phenylcarbamoyl)oxy)formamido)propyl)heptanamido)methyl)carbamoyl)furan-2-yl)benzamido) succinic acid] | convert to a BMP1, TLL1 and/or TLL2 inhibitor within 24 hours
CCCCC[C@@H](C(=O)NCNC(=O)c1ccc(-c2ccc(C(=O)N[C@@H](CC(=O)O)C(=O)O)c(OCC)c2)o1)[C@@H](CC)N(C=O)OC(=O)c1cccc(N)c1 [Example 600, (S)-2-(4-(5-((((R)-2-((R)-1-(N-((3-aminobenzoyl)oxy)formamido)propyl)heptanamido)methyl)carbamoyl)furan-2-yl)-2-ethoxybenzamido)succinic Acid] | convert to a BMP1, TLL1 and/or TLL2 inhibitor within 24 hours
CCCCC[C@@H](C(=O)NCNC(=O)c1ccc(-c2ccc(C(=O)N[C@@H](CC(=O)O)C(=O)O)c(OCC(=O)O)c2)o1)[C@@H](CC)N(C=O)OC(=O)C1(C)CC1 [Example 18, (S)-2-(2-(carboxymethoxy)-4-(5-((((R)-2-((R)-1-(N-((1-methylcyclo-propanecarbonyl)oxy) formamido)propyl)heptanamido)methyl)carbamoyl)furan-2-yl)benzamido) succinic acid] | convert to a BMP1, TLL1 and/or TLL2 inhibitor within 24 hours
CCCCC[C@@H](C(=O)NCNC(=O)c1ccc(-c2ccc(C(=O)N[C@@H](CC(=O)O)C(=O)O)c(OCC)c2)o1)[C@@H](CC)N(C=O)OC(=O)c1ccc(N(C)S(C)(=O)=O)cc1 [Example 129, (S)-2-(2-ethoxy-4-(5-((((R)-2-((R)-1-(N-((4-(N-methylmethyl-sulfonamido)benzoyl)oxy)formamido)propyl)heptanamido)methyl)carbamoyl)furan-2-yl)benzamido) succinic acid] | convert to a BMP1, TLL1 and/or TLL2 inhibitor within 24 hours
CCCCC[C@@H](C(=O)NCNC(=O)c1ccc(-c2ccc(C(=O)N[C@@H](CC(=O)O)C(=O)O)c(OCC(=O)O)c2)o1)[C@@H](CC)N(C=O)OC(=O)c1ccc(CN2CCOCC2)cc1C [Example 41, (S)-2-(2-(carboxymethoxy)-4-(5-((((R)-2-((R)-1-(N-((2-methyl-4-(morpholinomethyl)benzoyl)oxy) formamido)propyl)heptanamido)methyl)carbamoyl)furan-2-yl)benzamido) succinic acid] | convert to a BMP1, TLL1 and/or TLL2 inhibitor within 24 hours
CCCCC[C@@H](C(=O)NCNC(=O)c1ccc(-c2ccc(C(=O)N[C@@H](CC(=O)O)C(=O)O)c(OCC(=O)O)c2)o1)[C@@H](CC)N(C=O)OC(=O)c1ccccc1NC [Example 23, (S)-2-(2-(carboxymethoxy)-4-(5-((((R)-2-((R)-1-(N-((2-(methylamino)benzoyl)oxy) formamido)propyl)heptanamido)methyl)carbamoyl)furan-2-yl)benzamido) succinic acid] | convert to a BMP1, TLL1 and/or TLL2 inhibitor within 24 hours
CCCCC[C@@H](C(=O)NCNC(=O)c1ccc(-c2ccc(C(=O)N[C@@H](CC(=O)O)C(=O)O)c(OCC)c2)o1)[C@@H](CC)N(C=O)OC(=O)c1ccc(N2CCCC2)c(F)c1 [Example 77, (S)-2-(2-ethoxy-4-(5-((((R)-2-((R)-1-(N-((3-fluoro-4-(pyrrolidin-1-yl)benzoyl)oxy) formamido)propyl)heptanamido)methyl)carbamoyl)furan-2-yl)benzamido)succinic acid, 2Ammonia salt] | convert to a BMP1, TLL1 and/or TLL2 inhibitor within 24 hours
CCCCC[C@@H](C(=O)NCNC(=O)c1ccc(-c2ccc(C(=O)N[C@@H](CC(=O)O)C(=O)O)c(OCC)c2)o1)[C@@H](CC)N(C=O)OCOC(=O)C(C)(C)C [Example 94, (S)-2-(2-ethoxy-4-(5-(((4R,5R)-5-ethyl-6-formyl-11,11-dimethyl-3,10-dioxo-4-pentyl-7,9-dioxa-2,6-diazadodecyl)carbamoyl)furan-2-yl)benzamido) succinic acid] | convert to a BMP1, TLL1 and/or TLL2 inhibitor within 24 hours
CCCCC[C@@H](C(=O)NCNC(=O)c1ccc(-c2cc(OCC)cc(P(=O)(O)O)c2)o1)[C@@H](CC)N(C=O)OC(=O)C(CC)CC [Example 45, (3-ethoxy-5-(5-((((R)-2-((R)-1-(N-((2-ethylbutanoyl)oxy) formamido)propyl)heptanamido)methyl)carbamoyl)furan-2-yl)phenyl)phosphonic acid] | convert to a BMP1, TLL1 and/or TLL2 inhibitor within 24 hours
CCCCC[C@@H](C(=O)NCNC(=O)c1ccc(-c2ccc(C(=O)N[C@@H](CC(=O)O)C(=O)O)c(OCC)c2)o1)[C@@H](CC)N(C=O)OC(=O)c1ccc(-n2ccnc2)cc1 [Example 131, (S)-2-(4-(5-((((R)-2-((R)-1-(N-((4-(1H-imidazol-1-yl)benzoyl)oxy) formamido)propyl)heptanamido)methyl)carbamoyl)furan-2-yl)-2-ethoxybenzamido) succinic acid] | convert to a BMP1, TLL1 and/or TLL2 inhibitor within 24 hours
CCCCC[C@@H](C(=O)NCNC(=O)c1ccc(-c2ccc(C(=O)N[C@@H](CC(=O)O)C(=O)O)c(OCC)c2)o1)[C@@H](CC)N(C=O)OC(=O)c1ccc(OC)cc1C [Example 54, (S)-2-(2-ethoxy-4-(5-((((R)-2-((R)-1-(N-((4-methoxy-2-methylbenzoyl)oxy)formamido)propyl)heptanamido)methyl)carbamoyl)furan-2-yl)benzamido)succinic Acid, 2Ammonia Salt] | convert to a BMP1, TLL1 and/or TLL2 inhibitor within 24 hours
CCCCC[C@@H](C(=O)NCNC(=O)c1ccc(-c2cc(OCC)cc(P(=O)(O)OCOC(=O)C(C)C)c2)o1)[C@@H](CC)N(O)C=O [Example 300, (((3-ethoxy-5-(5-((((R)-2-((R)-1-(N-hydroxyformamido)propyl)heptanamido)methyl)carbamoyl)furan-2-yl)phenyl)(hydroxy)phosphoryl)oxy)methyl Isobutyrate] | convert to a BMP1, TLL1 and/or TLL2 inhibitor within 24 hours
CCCCC[C@@H](C(=O)NCNC(=O)c1ccc(-c2cc(OCC)cc(P(=O)(O)O)c2)o1)[C@@H](CC)N(C=O)OC(=O)c1ccc2c(c1)N(C)CCO2 [Example 84, (3-ethoxy-5-(5-((((R)-2-((R)-1-(N-((4-methyl-3,4-dihydro-2H-benzo[b][1,4]oxazine-6-carbonyl)oxy) formamido)propyl)heptanamido)methyl)carbamoyl)furan-2-yl)phenyl)phosphonic acid, 2Ammonia salt] | convert to a BMP1, TLL1 and/or TLL2 inhibitor within 24 hours
